Inconclusive means that the source gave no clear call. Such entries were picked first, then a sample of the others. Where the call is inconclusive, the potency comes from a doubtful curve fit. The source made the active and inactive calls. The call rests on the fitted dose curve; in most records, active means well fitted inhibition curve with a large enough effect; inconclusive means small, poorly fitted or top-dose-only effect; inactive means flat fitted curve, though single readings scatter.
Target: Dual specificity tyrosine-phosphorylation-regulated kinase 1A (Homo sapiens) (UniProt Q13627)
Assay: Assay for Inhibitors of Dual-Specificity Tyrosine-(Y)-Phosphorylation Regulated Kinase 1A (Kinase-Glo assay): round 2 SAR
Settings: recombinant DYRK1A, Kinase-Glo ATP depletion luminescence; series mostly up to 76.9 µM
From the text: NIH Molecular Libraries Probe Production Centers Network [MLPCN] NIH Chemical Genomics Center [NCGC] MLPCN Grant: 1R03MH084827-01 PI Name: Tom Misteli NCGC Assay Overview: The CMGC group of protein kinases which includes CDK-like kinases (Clk) and Dyks are essential kinases found in all eukaryotes. Clks have been implicated to play a role in the regulation of alternative splicing; while Dyrks, in particular over expression of Dyrk1A, has been linked to diseases as Down syndrome (DS; OMIM 190685) and Alzheimer disease (AD; OMIM 104300). Among the members of the CMGC group, the Clks and the Dyrks are very closely related therefore to determine validity and selectivity of an active compound observed in the CLK4 qHTS screen (AID:1770), a bioluminescent counter-screen against Dyrk1A was developed. In addition, potent and selective compounds against Dyrk1A were identified to further assess the role of this enzyme in DS and AD. Dyrk1A (Invitrogen, cat # PV3785) was assayed using ATP and DYRKtide (AnaSpec, cat# 62698) as substrates. Promega Kinase-Glo (cat# V6712) technology was used to detect the residual ATP following kinetic reaction. The Kinase-Glo Plus contains Ultra-Glo [5] luciferase and D-luciferin which generates a bioluminescence signal from the remaining ATP. No enzyme and harmine (Sigma, cat # 286044-1G), a compound shown to inhibit Dyrks were used as a positive control; while DMSO treatment was used as a negative control.
NCGC Assay Protocol Summary: Two uL/well of substrate solution (8uM Dyrktide, 2uM ATP, 25mM Tris-HCl pH 7.5, 10mM MgCl2 , 0.5mM EGTA, 5mM cystein, 0.01% Triton X-100 final concentration) was dispensed into 1536-well assay plates (Greiner, solid white, medium-binding plates) with Aurora Discovery BioRAPTR Flying Reagent Dispenser (FRD, Beckton-Dickenson). Compound solution (23 nL) was transferred to the assay plate using Kalypsys pin tool equipped with a 1536-pin tool. One uL/well enzyme solution (5nM Dyrk1A, 25mM Tris-HCl pH7.5, 10mM MgCl2, 0.5mM EGTA, 5mM cystein, 0.01% Triton X-100 final concentration) was then added using FRD yielding a total kinase reaction volume of 3uL/well. After 2 hours of room temperature incubation, 3uL Kinase-Glo detection reagent was added for a final assay volume of 6uL/well. The plates were spun for 30 seconds (1000 rpm) and incubated at ambient temperature for 2 minutes followed by a luminescence read using Perkin Elmer ViewLux plate reader at 3 seconds exposure time and 2x binning.

| Structure (SMILES) | Potency |
| --- | --- |
| Cn1ccc2cc(-c3ccc4ncnc(NCc5ccc6c(c5)OCO6)c4c3)ccc21 | inactive |
| Cc1csc(CNc2ncnc3ccc(-c4cccc(Cl)c4)cc23)c1 | inconclusive: 14.6 µM [falling, partial curve, poor fit] |
| CN(CC1CCCCO1)c1ncnc2ccc(-c3ccc4c(c3)OCO4)cc12 (stereo unspecified) | active: 0.292 µM |
| CN1CCN(c2ncc3nc(-c4cn(C)c5ccccc45)c(=O)n(Cc4cccs4)c3n2)CC1 | inactive |
| Fc1cccc(CNc2ncnc3ccc(-c4cccc(Cl)c4)cc23)c1 | inconclusive: 14.6 µM [falling, full curve] |
| Clc1cccc(-c2ccc3ncnc(NCc4ccc5c(c4)OCO5)c3c2)c1 | inactive |
| Fc1cccc(CNc2ncnc3ccc(-c4cccnc4)cc23)c1 | active: 26 µM |
| CCNC(=O)c1ccc(-c2ccc3ncnc(NCCc4cnc[nH]4)c3c2)o1 | active: 11.6 µM |
| O=Cc1ccc(-c2ccc3ncnc(NCc4cccs4)c3c2)o1 | inconclusive: 29.2 µM [falling, partial curve] |
| c1cncc(CNc2ncnc3ccc(-c4cccnc4)cc23)c1 | inconclusive: 23.2 µM [falling, partial curve] |
| Cn1ccc2cc(-c3ccc4ncnc(NCc5cccc(F)c5)c4c3)ccc21 | inactive |
| Cc1cccc(-c2ccc3ncnc(NCc4cc(C)cs4)c3c2)c1 | inconclusive: 14.6 µM [falling, partial curve] |
| c1nc(NCC2CCCO2)c2ccc(-c3ccc4c(c3)OCO4)cc2n1 (stereo unspecified) | inconclusive: 16.4 µM [falling, partial curve] |
| CS(=O)(=O)CCNCc1ccc(-c2ccc3ncnc(Nc4ccc(OCc5cccc(F)c5)c(Cl)c4)c3c2)o1 | inactive |
| CN(CCc1ccco1)c1ncnc2ccc(-c3ccc4c(c3)OCO4)cc12 | active: 0.292 µM |
| Cn1cc(-c2nc3cnc(N4CCNCC4)nc3n(Cc3ccc(F)cc3)c2=O)c2ccccc21 | inconclusive: 8.23 µM [falling, full curve] |

| Structure (SMILES) | Potency |
| --- | --- |
| Cc1cccc(CNc2ncnc3ccc(-c4ccc5c(ccn5C)c4)cc23)c1 | inconclusive: 11.6 µM [falling, partial curve, poor fit] |
| Cc1ccc(CN(C)c2ncnc3ccc(-c4ccc(CO)n4C)cc23)o1 | inconclusive: 29.2 µM [falling, partial curve] |
| Cc1cccc(CNc2ncnc3ccc(-c4cccc(C)c4)cc23)c1 | inconclusive: 26 µM [falling, partial curve] |
| Cc1csc(CNc2ncnc3ccc(-c4ccco4)cc23)c1 | inconclusive: 23.2 µM [falling, partial curve, poor fit] |
| c1nc(NCc2ccc3c(c2)OCO3)c2cc(-c3ccc4c(c3)OCCO4)ccc2n1 | active: 4.12 µM |
| Cc1csc(CNc2ncnc3ccc(-c4ccccc4Cl)cc23)c1 | inconclusive: 11.6 µM [falling, full curve] |
| Clc1ccccc1-c1ccc2ncnc(NCc3ccc4c(c3)OCO4)c2c1 | inactive |
| Cc1csc(CNc2ncnc3ccc(-c4ccc5c(ccn5C)c4)cc23)c1 | inconclusive: 29.2 µM [falling, partial curve, poor fit] |
| Cc1cccc(CNc2ncnc3ccc(-c4cccc(Cl)c4)cc23)c1 | inconclusive: 11.6 µM [falling, partial curve, poor fit] |
| c1cncc(-c2ccc3ncnc(NCc4ccc5c(c4)OCO5)c3c2)c1 | inconclusive: 23.2 µM [falling, partial curve] |
| Cc1cccc(CNc2ncnc3ccc(-c4ccccc4Cl)cc23)c1 | inconclusive: 9.23 µM [falling, partial curve] |
| c1cncc(CNc2ncnc3ccc(-c4ccc5c(c4)OCO5)cc23)c1 | active: 0.412 µM |
| c1cncc(CNc2ncnc3ccc(-c4ccoc4)cc23)c1 | active: 9.23 µM |
| COc1cccc(Nc2ncc3nc(-c4cn(C)c5ccccc45)c(=O)n(CCC#N)c3n2)c1 | inactive |
| Cn1ccc2cc(-c3ccc4ncnc(NCc5cccnc5)c4c3)ccc21 | inconclusive: 26 µM [falling, partial curve] |

Three entries out of the list, sorted by SMILES length, falling:

| Structure (SMILES) | Potency |
| --- | --- |
| c1nc(NCc2ccc3c(c2)OCO3)c2cc(-c3ccc4c(c3)OCCO4)ccc2n1 | active: 4.12 µM |
| CN(CCc1ccco1)c1ncnc2ccc(-c3ccc4c(c3)OCO4)cc12 | active: 0.292 µM |
| c1cncc(-c2ccc3ncnc(NCc4ccc5c(c4)OCO5)c3c2)c1 | inconclusive: 23.2 µM [falling, partial curve] |

From PubChem BioAssay AID493206 (National Center for Advancing Translational Sciences (NCATS), 2011)
